Test results: patent publication US20150074844A1

How the values were obtained:
Test in all cases: immunoprecipitation from floral organs of transgenic plants and mass spectrometry
[1] = target: T1, HAI1 (endogenous, from Arabidopsis floral organs) (Arabidopsis) (UniProt Q9FIF5)
T1 sequence (looked up): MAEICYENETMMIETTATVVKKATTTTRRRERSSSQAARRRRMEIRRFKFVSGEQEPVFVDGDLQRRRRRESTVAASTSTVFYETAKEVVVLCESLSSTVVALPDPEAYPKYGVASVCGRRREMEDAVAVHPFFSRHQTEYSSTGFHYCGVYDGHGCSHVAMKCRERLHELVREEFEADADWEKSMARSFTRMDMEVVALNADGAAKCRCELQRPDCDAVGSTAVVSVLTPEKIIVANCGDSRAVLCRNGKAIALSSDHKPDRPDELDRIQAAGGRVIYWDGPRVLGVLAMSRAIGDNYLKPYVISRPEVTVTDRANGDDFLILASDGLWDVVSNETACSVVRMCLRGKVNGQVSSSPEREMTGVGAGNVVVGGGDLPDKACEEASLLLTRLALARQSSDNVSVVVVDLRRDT

[2] = target: T2, PP2CA (endogenous, from Arabidopsis floral organs) (Arabidopsis) (UniProt P49598)
T2 sequence (looked up): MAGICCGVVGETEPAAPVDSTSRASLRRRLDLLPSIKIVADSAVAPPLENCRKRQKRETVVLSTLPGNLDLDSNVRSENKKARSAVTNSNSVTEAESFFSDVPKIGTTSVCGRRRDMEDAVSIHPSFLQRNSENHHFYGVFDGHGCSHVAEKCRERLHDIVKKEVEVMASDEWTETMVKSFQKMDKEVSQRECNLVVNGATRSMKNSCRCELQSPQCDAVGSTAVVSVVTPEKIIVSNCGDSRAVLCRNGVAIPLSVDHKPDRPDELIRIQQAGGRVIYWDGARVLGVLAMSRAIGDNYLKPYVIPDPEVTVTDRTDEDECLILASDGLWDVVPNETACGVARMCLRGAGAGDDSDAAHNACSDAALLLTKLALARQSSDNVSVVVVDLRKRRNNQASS

[3] = target: T3, PYL2 (endogenous, from Arabidopsis floral organs) (Arabidopsis thaliana) (UniProt O80992)
T3 sequence: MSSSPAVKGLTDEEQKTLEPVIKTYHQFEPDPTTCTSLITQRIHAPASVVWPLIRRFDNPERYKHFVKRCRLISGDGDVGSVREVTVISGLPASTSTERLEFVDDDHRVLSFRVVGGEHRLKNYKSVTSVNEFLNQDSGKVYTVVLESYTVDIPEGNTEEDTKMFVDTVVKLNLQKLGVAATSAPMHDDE

Measured: binding

B1: PYL13-HA-YFP (protein, not shown: large carriers)
chain: MESSKQKRCRSSVVETIEAPLPLVWSILRSFDKPQAYQRFVKSCTMRSGGGGGKGGEGKGSVRDVTLVSGFPADFSTERLEELDDESHVMVVSIIGGNHRLVNYKSKTKVVASPEDMAKKTVVVESYVVDVPEGTSEEDTIFFVDNIIRYNLTSLAKLTKKMMK
binds: all assays above

No constants are given. Whether binding was seen depends on the method and setting. In cells and extracts the contact can be indirect. These calls come from enrichment with a bait or labelling near it, and not all partners need be listed. Where a sequence is shown, tags or fusion partners need not be part of it.
